# Assay results reported in PubChem BioAssay AID2662 (National Center for Advancing Translational Sciences (NCATS), 2010).
# Sequences of proteins named here, by UniProt entry; tags and fusion partners are left off.
# UniProt Q03164, whole entry, looked up: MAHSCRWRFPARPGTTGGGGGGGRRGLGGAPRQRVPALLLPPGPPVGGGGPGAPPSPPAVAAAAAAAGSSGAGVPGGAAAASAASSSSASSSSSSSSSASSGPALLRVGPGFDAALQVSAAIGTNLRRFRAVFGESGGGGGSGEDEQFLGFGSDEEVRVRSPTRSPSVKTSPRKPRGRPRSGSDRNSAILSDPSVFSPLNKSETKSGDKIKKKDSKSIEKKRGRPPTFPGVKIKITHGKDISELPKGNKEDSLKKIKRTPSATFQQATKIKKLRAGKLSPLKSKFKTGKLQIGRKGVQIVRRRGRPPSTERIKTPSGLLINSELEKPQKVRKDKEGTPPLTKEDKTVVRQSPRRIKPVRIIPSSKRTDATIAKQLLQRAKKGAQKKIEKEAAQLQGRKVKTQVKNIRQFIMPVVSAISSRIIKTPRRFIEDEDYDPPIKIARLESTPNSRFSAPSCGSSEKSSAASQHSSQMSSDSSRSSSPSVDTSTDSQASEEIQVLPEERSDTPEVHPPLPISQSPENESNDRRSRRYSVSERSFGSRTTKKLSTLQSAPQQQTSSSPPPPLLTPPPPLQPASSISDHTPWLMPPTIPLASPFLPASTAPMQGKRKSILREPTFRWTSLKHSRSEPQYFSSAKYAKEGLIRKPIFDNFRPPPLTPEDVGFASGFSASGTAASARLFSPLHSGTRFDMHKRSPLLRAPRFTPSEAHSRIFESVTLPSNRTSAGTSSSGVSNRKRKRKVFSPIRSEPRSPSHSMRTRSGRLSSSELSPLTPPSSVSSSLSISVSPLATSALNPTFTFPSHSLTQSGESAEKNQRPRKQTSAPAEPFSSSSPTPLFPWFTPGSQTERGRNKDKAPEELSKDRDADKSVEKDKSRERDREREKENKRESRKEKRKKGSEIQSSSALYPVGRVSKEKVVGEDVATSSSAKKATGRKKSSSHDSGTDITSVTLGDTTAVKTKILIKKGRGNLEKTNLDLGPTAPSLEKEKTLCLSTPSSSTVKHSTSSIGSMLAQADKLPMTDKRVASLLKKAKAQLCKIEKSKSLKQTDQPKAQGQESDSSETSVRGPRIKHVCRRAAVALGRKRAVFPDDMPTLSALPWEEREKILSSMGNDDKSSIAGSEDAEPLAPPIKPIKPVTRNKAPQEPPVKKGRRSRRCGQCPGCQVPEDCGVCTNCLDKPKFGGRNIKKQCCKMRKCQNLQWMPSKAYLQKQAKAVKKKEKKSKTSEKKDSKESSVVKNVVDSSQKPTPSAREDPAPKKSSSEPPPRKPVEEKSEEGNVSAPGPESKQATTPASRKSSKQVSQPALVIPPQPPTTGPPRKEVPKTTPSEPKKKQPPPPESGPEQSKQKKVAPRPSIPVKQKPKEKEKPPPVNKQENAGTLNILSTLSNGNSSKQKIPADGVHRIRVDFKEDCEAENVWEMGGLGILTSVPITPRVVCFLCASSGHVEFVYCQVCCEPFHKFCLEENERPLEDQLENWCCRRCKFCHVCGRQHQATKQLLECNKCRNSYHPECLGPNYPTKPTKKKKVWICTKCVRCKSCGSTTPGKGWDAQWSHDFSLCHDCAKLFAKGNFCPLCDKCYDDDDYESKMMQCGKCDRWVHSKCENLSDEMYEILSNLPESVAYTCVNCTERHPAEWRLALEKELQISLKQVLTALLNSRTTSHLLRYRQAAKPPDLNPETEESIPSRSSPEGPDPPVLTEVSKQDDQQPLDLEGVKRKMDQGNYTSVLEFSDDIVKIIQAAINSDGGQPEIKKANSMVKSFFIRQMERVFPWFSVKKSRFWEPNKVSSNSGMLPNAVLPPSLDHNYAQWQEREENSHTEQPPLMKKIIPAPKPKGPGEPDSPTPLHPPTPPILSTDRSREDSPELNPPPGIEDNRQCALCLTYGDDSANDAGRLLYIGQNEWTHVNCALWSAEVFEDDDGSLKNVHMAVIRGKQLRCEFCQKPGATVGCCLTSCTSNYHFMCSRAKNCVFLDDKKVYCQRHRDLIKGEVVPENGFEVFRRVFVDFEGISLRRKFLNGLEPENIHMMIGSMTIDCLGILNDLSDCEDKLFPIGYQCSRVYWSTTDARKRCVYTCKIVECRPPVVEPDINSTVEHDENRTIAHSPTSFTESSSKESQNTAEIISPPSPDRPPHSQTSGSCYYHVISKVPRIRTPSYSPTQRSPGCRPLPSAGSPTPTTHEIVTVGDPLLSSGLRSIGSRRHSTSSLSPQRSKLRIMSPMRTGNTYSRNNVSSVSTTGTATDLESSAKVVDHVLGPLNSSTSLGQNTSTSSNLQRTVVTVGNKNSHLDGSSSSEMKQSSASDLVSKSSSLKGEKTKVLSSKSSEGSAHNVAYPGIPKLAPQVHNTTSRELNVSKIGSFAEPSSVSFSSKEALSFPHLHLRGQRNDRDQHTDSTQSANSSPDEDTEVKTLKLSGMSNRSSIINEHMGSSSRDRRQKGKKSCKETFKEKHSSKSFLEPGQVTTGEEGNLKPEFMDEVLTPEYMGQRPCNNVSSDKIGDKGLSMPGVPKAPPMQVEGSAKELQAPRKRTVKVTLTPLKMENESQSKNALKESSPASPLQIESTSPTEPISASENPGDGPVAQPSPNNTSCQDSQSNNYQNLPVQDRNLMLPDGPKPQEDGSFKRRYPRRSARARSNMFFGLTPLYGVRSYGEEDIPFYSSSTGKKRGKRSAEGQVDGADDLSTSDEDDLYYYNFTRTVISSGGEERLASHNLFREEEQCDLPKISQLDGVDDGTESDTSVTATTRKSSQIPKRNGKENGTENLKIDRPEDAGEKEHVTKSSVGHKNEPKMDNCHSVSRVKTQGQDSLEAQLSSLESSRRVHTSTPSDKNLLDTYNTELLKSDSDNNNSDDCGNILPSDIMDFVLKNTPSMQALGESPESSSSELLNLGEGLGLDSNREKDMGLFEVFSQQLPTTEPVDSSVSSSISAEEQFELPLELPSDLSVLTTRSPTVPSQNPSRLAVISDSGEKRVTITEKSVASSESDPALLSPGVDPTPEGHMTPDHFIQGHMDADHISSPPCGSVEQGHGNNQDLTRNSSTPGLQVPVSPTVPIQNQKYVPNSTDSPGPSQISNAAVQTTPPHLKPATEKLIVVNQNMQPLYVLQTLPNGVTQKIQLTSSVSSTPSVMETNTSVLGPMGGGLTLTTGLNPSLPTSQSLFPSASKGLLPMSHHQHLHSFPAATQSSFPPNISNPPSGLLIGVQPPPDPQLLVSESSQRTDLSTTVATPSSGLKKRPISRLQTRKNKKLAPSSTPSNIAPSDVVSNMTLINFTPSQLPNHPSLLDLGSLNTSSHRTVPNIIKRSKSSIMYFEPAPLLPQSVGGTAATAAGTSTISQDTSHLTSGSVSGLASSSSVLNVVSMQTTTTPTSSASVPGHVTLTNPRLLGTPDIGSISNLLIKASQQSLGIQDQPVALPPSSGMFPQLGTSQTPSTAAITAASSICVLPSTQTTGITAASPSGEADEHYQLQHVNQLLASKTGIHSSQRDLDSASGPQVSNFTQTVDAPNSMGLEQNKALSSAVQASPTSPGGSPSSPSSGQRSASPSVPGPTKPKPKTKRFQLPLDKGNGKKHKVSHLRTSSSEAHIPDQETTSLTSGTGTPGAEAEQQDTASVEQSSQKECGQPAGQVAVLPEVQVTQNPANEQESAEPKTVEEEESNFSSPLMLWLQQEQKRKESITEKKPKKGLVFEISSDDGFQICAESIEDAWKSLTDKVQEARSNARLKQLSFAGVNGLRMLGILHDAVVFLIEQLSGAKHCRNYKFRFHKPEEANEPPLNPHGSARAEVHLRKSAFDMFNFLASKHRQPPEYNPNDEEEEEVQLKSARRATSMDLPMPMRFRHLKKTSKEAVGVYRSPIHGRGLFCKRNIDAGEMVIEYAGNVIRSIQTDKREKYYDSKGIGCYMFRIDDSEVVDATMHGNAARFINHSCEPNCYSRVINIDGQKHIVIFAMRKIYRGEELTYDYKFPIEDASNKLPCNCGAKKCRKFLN
# The campaign covered roughly 290,000 compounds. About 110 (0.038%) were called active. This list was built around the results that the source calls inconclusive (neither active nor inactive); the mix of calls is not that of the screen. Calls follow the shape of the dose curve; as a rule, active = well fitted inhibition curve with a large enough effect in the polarisation, with a control signal flat (not every such curve was filed as active); inconclusive = small, poorly fitted or top-dose-only effect, or effect the other way, or a change in a side signal; inactive = no such curve, though single readings can be large or run the other way; the % refers to the polarisation. A potency beside an inconclusive call is a rough fit, not a confirmed value. A note “side channel” means that the fit belongs to a control or component signal, not to the main read-out.
# Target: Histone-lysine N-methyltransferase 2A (Homo sapiens) (UniProt Q03164)
# Assay: qHTS Fluorescence Polarization Assay for Inhibitors of MLL CXXC domain - DNA interaction
# Conditions: MLL-CXXC / FITC-HOXA9 DNA fluorescence polarization; activity change, negative = inhibition: at 115 µM (top of the series)
# Procedure, shortened: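 Purified MLL-CXXC (added from a 7 uM solution) was preincubated 5 min at ambient with pinned compounds in 50 mM Tris-HCl pH 7.5, 50 mM NaCl, 1 mM DTT, 0.05% BSA. Fluorescein-labeled HOX-A9 DNA (50 nM solution) followed, 30 min, then polarization read.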
# Potency is read from the fitted curve at half-maximal effect.
Structure (SMILES),Potency,"activity change, negative = inhibition"
CC(=O)c1c(C)[nH]c(C(=O)N2CC(C)CC(C)C2)c1C (stereo not given),"inconclusive: 1 µM [inhibitor, full curve, poor fit]",
Cc1cc(NC(=O)Cn2cnc3c(nnn3-c3ccc(C)c(Cl)c3)c2=O)no1,"inconclusive: 31.6 µM [fluorescent, side channel, single point]",
O=C(Cc1cccs1)Nc1nc2c(ccc3ccccc32)s1,,inactive: 13%
Cc1ccc(N2CC(C(=O)Nc3ccc(S(=O)(=O)NCC4CCCO4)cc3)CC2=O)cc1 (stereo not given),"inconclusive: 7.94 µM [inhibitor, single point]",
COC(=O)c1cccc(-c2ccc(C(c3c(C)[nH][nH]c3=O)c3c(C)[nH][nH]c3=O)o2)c1,"inconclusive: 89.1 µM [inhibitor, single point]",
CCc1nnc(NC(=O)c2ccc(S(=O)(=O)NCC(C)C)cc2)s1,,inactive: 4.63%
CSc1ncccc1C(=O)Nc1cccc(C)n1,"inconclusive: 70.8 µM [quencher, side channel, single point]",
CCOC(=O)c1c(NC(=O)Cn2nc(C(F)F)cc2C(F)F)sc(C)c1C,,inactive: 0.578%
COc1ccccc1NS(=O)(=O)c1cc(C(=O)NCc2ccco2)ccc1C,"inconclusive: 11.2 µM [quencher, side channel, single point]",
COc1c(C(=O)Nc2nccs2)ccc2ccccc12,"inconclusive: 31.6 µM [fluorescent, side channel, partial curve]",
O=C(NNc1c2ccccc2nc2ccccc12)c1ccccc1O,"inconclusive: 7.08 µM [quencher, side channel, full curve]",
Cc1n[nH]c(C)c1CCNC(=O)C1CCC(=O)N(Cc2ccccc2F)C1 (stereo not given),"inconclusive: 3.16 µM [inhibitor, full curve, poor fit]",
CCn1c(=O)cc(OCC(=O)NC(C)c2ccc3c(c2)OCCO3)c2ccccc21 (stereo not given),"inconclusive: 100 µM [quencher, side channel, partial curve, poor fit]",
Nc1nc(-c2ccccc2)c(N=Nc2ccccc2Cl)s1,"inconclusive: 20 µM [quencher, side channel, partial curve, poor fit]",
O=C1CCC/C(=N/NC(=O)c2sc3ccccc3c2Cl)C1,"inconclusive: 17.8 µM [fluorescent, side channel, partial curve]",
CCOC(=O)c1cc2n(c1/N=C/N(C)C)-c1ccccc1C2=O,"inconclusive: 39.8 µM [fluorescent, side channel, partial curve]",
CCCCNC(=O)CNC(=O)c1nn(-c2ccc(OC)cc2)c(=O)c2ccccc12,"inconclusive: 63.1 µM [inhibitor, single point]",
CN(C)C(CNC(=O)c1cnc(Cl)c(Cl)c1)c1ccccc1 (stereo not given),"inconclusive: 12.6 µM [fluorescent, side channel, single point]",
O=C1CN(C(=O)COC(=O)c2ccccc2NCc2ccco2)c2ccccc2N1,,inactive: 11.2%

# Three structures out of the list, sorted by count of non-hydrogen atoms, smallest number first:
Structure (SMILES),Potency,"activity change, negative = inhibition"
O=C(Cc1cccs1)Nc1nc2c(ccc3ccccc32)s1,,inactive: 13%
Cc1cc(NC(=O)Cn2cnc3c(nnn3-c3ccc(C)c(Cl)c3)c2=O)no1,"inconclusive: 31.6 µM [fluorescent, side channel, single point]",
Cc1ccc(N2CC(C(=O)Nc3ccc(S(=O)(=O)NCC4CCCO4)cc3)CC2=O)cc1 (stereo not given),"inconclusive: 7.94 µM [inhibitor, single point]",

# Further structures:

Structure (SMILES),Potency,"activity change, negative = inhibition"
O=C(CCC1CCCN(C(=O)c2ccc3c(c2)OCO3)C1)N1CCN(c2ccccn2)CC1 (stereo not given),"inconclusive: 15.8 µM [inhibitor, partial curve]",
O=C(COc1ccccc1)Nc1nnc(S(=O)(=O)Nc2ccccc2)s1,,inactive: -25.2%
C=CCCc1ccc(C#N)c(SCc2c(C(=O)OCC)c3cc(OC(C)=O)c(Br)cc3n2C)n1,,inactive: -0.61%
NC(=O)c1ccc([N+](=O)[O-])cc1Cl,"inconclusive: 50.1 µM [fluorescent, side channel, partial curve]",
Cc1ccc(N2C(=O)C3CC(c4ccccc4)=C4C5C=CC(C6C(=O)N(c7ccc(C)cc7)C(=O)C56)C4C3C2=O)cc1 (stereo not given),,inactive: 5.79%
CCOC(=O)c1c(C)n(-c2ccc(C)cc2)c2ccc(OCC(O)CNCC3CCCO3)cc12 (stereo not given),"inconclusive: 15.8 µM [quencher, side channel, partial curve]",
Cc1nn(C)cc1S(=O)(=O)N1CCCC(C(=O)O)C1 (stereo not given),"inconclusive: 1.41 µM [fluorescent, side channel, full curve]",
CC(=O)Nc1ccc(C(=O)N(C)C(C(=O)Nc2ccccc2)c2ccccn2)cc1 (stereo not given),"inconclusive: 31.6 µM [inhibitor, single point]",
NC(N)=NN=C(/C=C/c1ccc([N+](=O)[O-])o1)/C=C/c1ccc([N+](=O)[O-])o1,,inactive: 5.44%
COc1ccc(/C=C/c2ccc3ccccc3[n+]2C)cc1OC,"inconclusive: 7.94 µM [fluorescent, side channel, partial curve]",
O=C(O)c1nn(CC(=O)N2CCCCCC2)c(=O)c2ccccc12,,inactive: 16.6%
COc1ccc(-c2cncnc2-c2ccc(OC)cc2O)cc1,"inconclusive: 1.12 µM [quencher, side channel, partial curve, poor fit]",
Cc1cc(C)cc(NCc2cc(=O)oc3cc(-c4ccccc4)c(O)cc23)c1,"inconclusive: 14.1 µM [inhibitor, single point]",
Cc1ccc(C2=NN(CCC#N)C(=O)CO2)cc1,"inconclusive: 39.8 µM [fluorescent, side channel, single point]",
CCCn1c(=O)c2ccccc2n2c(SCC(=O)/C(C#N)=C(\C)N)nnc12,"inconclusive: 1.41 µM [fluorescent, side channel, full curve]",
COCCN(C(=O)CSc1nnc(-c2ccc(Cl)cc2)o1)c1c(N)n(CC(C)C)c(=O)[nH]c1=O,"inconclusive: 7.08 µM [fluorescent, side channel, single point]",
CCN(CC)C(=O)CN(c1cccc(C(F)(F)F)c1)S(C)(=O)=O,"inconclusive: 6.31 µM [fluorescent, side channel, single point]",
CCOc1cc(/C=C2/C(=O)ON=C2C)ccc1O,"inconclusive: 17.8 µM [inhibitor, partial curve]",
COc1cccc(C(=O)NN2CC(O)=C(c3nc4ccccc4s3)C2=N)c1,"inconclusive: 35.5 µM [fluorescent, side channel, partial curve]",
COc1ccc(/C=N/NC(=O)c2cccc(NC(C)=O)c2)c(OC)c1,"inconclusive: 14.1 µM [fluorescent, side channel, full curve]",

# Whole records, quoted from the list.
# O=C(CCC1CCCN(C(=O)c2ccc3c(c2)OCO3)C1)N1CCN(c2ccccn2)CC1 (stereo not given) is listed as Potency: inconclusive: 15.8 µM [inhibitor, partial curve]
# COC(=O)c1cccc(-c2ccc(C(c3c(C)[nH][nH]c3=O)c3c(C)[nH][nH]c3=O)o2)c1 is listed as Potency: inconclusive: 89.1 µM [inhibitor, single point]

# Additional compounds.

Structure (SMILES),Potency,"activity change, negative = inhibition"
CCN(CC)CCCN(C(=O)c1ccccc1C)c1nc(-c2ccc(OC)cc2)cs1,"inconclusive: 35.5 µM [quencher, side channel, partial curve]",
COc1nsnc1N1CCOCC1,"inconclusive: 70.8 µM [fluorescent, side channel, single point]",
COc1cccc(NC(=O)NCC2CCN(Cc3ccc(F)cc3)CC2)c1,"inconclusive: 14.1 µM [fluorescent, side channel, single point]",
O=C(CN1CCC(n2nnc3cc(F)ccc32)CC1)Nc1ccc2c(c1)CCC2,,inactive: 13.8%
COc1ccc(C2CNC(=O)C2)cc1OC1CCCC1 (stereo not given),"inconclusive: 35.5 µM [fluorescent, side channel, single point]",
O=c1c(O)c(-c2ccc(O)cc2O)oc2cc(O)cc(O)c12,"inconclusive: 35.5 µM [fluorescent, side channel, single point]",
CCN1C(=O)/C(=C/C=C2\N(CC)c3cc(S(=O)(=O)N(C)C)ccc3N2c2ccccc2)SC1=S,"inconclusive: 6.31 µM [fluorescent, full curve]",
CCCOc1ccc(-c2nnc(-c3ccncc3)o2)cc1,,inactive: -11.1%
Cc1ccc(S(=O)(=O)Nc2ccc(S(=O)(=O)NC(C)(C)C)cc2)cc1,,inactive: -9.85%
Cc1cc(NC(=O)c2ccccc2F)ncc1NC(=O)c1cccs1,"inconclusive: 70.8 µM [fluorescent, side channel, single point]",
Oc1ccccc1CNc1ccc(Br)cn1,,inactive: 8.11%
CC(OC(=O)CN1C(=O)c2ccccc2C1=O)C(=O)NC1CCCC1 (stereo not given),"inconclusive: 39.8 µM [fluorescent, side channel, partial curve]",
CCn1nc(C(=O)NCC(c2cccs2)N2CCOCC2)c2ccccc2c1=O (stereo not given),,inconclusive: 9.01% [phenotype inactive]
COc1ccc(C2CC(=O)C(C(c3ccc(O)cc3)C3C(=O)CC(c4ccc(OC)cc4)CC3=O)C(=O)C2)cc1 (stereo not given),"inconclusive: 35.5 µM [inhibitor, single point]",
COc1cc(SC#N)ccc1N=Cc1c(C)[nH]n(-c2ccc(C)cc2C)c1=O,"inconclusive: 31.6 µM [fluorescent, side channel, partial curve]",
Cc1cc(-n2[nH]c(C)c(C)c2=O)nc(-c2ccccc2O)n1,"inconclusive: 35.5 µM [inhibitor, single point]",
CCOc1ccc(CNC(=O)CCc2cn(C)c3ccccc23)cc1,"inconclusive: 1.58 µM [fluorescent, side channel, full curve, poor fit]",
CCCSc1nsc(NC(=O)CCC)n1,"inconclusive: 10 µM [fluorescent, side channel, full curve, poor fit]",
CCc1ccccc1N(C1=NCCCS1)S(=O)(=O)c1ccc(C(C)(C)C)cc1,"inconclusive: 8.91 µM [fluorescent, side channel, single point]",
CCCc1ccc(C(C)NC(=S)NCc2ccc(F)cc2)cc1 (stereo not given),"inconclusive: 8.91 µM [fluorescent, side channel, single point]",
